PubChem BioAssay AID493014 (National Center for Advancing Translational Sciences (NCATS), 2011)
This is one part of the list. These are further read-outs of the screen, such as a control signal, another cell line or another target. No call is given for them. Most of these compounds were active or inconclusive in the main read-out, so they are no random draw. Potencies come from curve fits of mixed quality, noted in brackets.

Assay: qHTS Assay to Find Inhibitors of Chronic Active B-Cell Receptor Signaling
Conditions: ABC-DLBCL IkBa-CBG/CBR reporter, luminescence ratio (green luciferase fused to IkBa over red control in TMD8 lymphoma cells), 4 h
Outline: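 Compounds up to 46 uM were incubated four hours with TMD8 cells whose green CBG68 luciferase is fused to IkappaBalpha; red CBR luminescence normalised the signal, and concentration-effect curves were fitted to fusion, red and ratio data.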

[1] = measured here: CBR red luminescence, cell number
[2] = measured here: IkBa-CBG green luminescence

SMILES	AC50 [1]	AC50 [2]
O=C(COc1ccccc1[N+](=O)[O-])Nc1cccc(S(=O)(=O)NC2=NCCCCC2)c1	18.4 µM [falling, partial curve, poor fit]	
NC(N)=NNC(=O)c1ccccc1Cl	13 µM [falling, partial curve, poor fit]	
CC(=O)NCC(=O)N(c1ccccc1)C1(C(=O)NC2CCCCC2)CCCCC1	8.91 µM [rising, partial curve, poor fit]	
COc1ccc(C2=NOC(C(=O)NCc3ccc(F)cc3)C2)cc1 (stereo unspecified)	5.01 µM [rising, full curve]	3.16 µM [falling, full curve]
O=C1CCOc2cc(OCc3ccccc3)ccc21	29.1 µM [falling, single point]	
CCOc1cc(/C=N/O)ccc1OCc1ccccc1F	0.231 µM [rising, full curve]	20.6 µM [falling, partial curve, poor fit]
Cc1nc(SCC(=O)N2CCc3ccccc3C2)c2c(C)c(C)sc2n1	8.2 µM [falling, partial curve, poor fit]	
CCOc1ccccc1NC(=S)NNS(=O)(=O)c1c(C)cc(C)cc1C	11.6 µM [falling, partial curve]	
CC(=O)Nc1ccc2nc(-c3cccn3C)[nH]c2c1	17.8 µM [falling, partial curve, poor fit]	
CCn1c(NC(=S)Nc2ccccc2)nc2ccccc21	22.4 µM [falling, single point]	
Cc1sc2nc(CSCC(=O)Nc3c(F)cccc3F)[nH]c(=O)c2c1C	29.1 µM [rising, single point]	
CCOc1ccc(N(CC(=O)NCc2ccco2)C(=O)CCC(=O)Nc2ccccn2)cc1	0.1 µM [falling, full curve, poor fit]	
CC(=O)c1ccc2noc(-c3cccc(F)c3)c2c1	35.5 µM [falling, single point]	
COCCCNC(=O)c1ccccc1N(Cc1ccccc1)S(=O)(=O)c1ccccc1	15.8 µM [rising, partial curve, poor fit]	
CN(C)C(CNC(=O)c1ccc(C2SCCS2)cc1)c1ccccc1 (stereo unspecified)	7.08 µM [falling, full curve]	
Brc1ccc(CSc2nnc(-c3ccco3)o2)cc1	4.11 µM [rising, full curve, poor fit]	
Cc1cccc2sc(NC(=O)CN3C(=O)C4CC=CCC4C3=O)nc12 (stereo unspecified)	7.94 µM [falling, partial curve, poor fit]	
Cc1ccc(C)c(NC(NC(=O)c2cccnc2)C(Cl)(Cl)Cl)c1 (stereo unspecified)	2.82 µM [rising, partial curve, poor fit]	
CCOC(=O)C1=C(c2ccccc2)O/C(=C(/C(=O)OC)C(F)(F)F)S1	1.03 µM [falling, partial curve, poor fit]	
COc1ccc2nc(C)c3cc(C)oc3c2c1		2.31 µM [falling, partial curve, poor fit]
O=C(Nc1nc2ccccc2s1)c1ccc(F)cc1	1.26 µM [falling, full curve]	0.794 µM [rising, full curve, poor fit]

SMILES	AC50 [1]	AC50 [2]
O=C(COC(=O)COc1ccc(Br)cc1)NC1CCCC1	6.51 µM [rising, full curve, poor fit]	
N=c1c2c(-c3ccccc3)c(-c3ccccc3)n(Cc3ccco3)c2ncn1CCCn1ccnc1	20.6 µM [falling, single point]	
Cc1cccc(-c2noc(-c3ccc(Cl)cc3[N+](=O)[O-])n2)c1	2.06 µM [rising, full curve, poor fit]	
Cc1cccc(OCCCC(=O)N2CCCc3ccccc32)c1C	29.1 µM [falling, partial curve, poor fit]	
C=CCNc1nnc(SC2CC(=O)N(c3ccc(OCCC)cc3)C2=O)s1 (stereo unspecified)	0.92 µM [falling, partial curve, poor fit]	
CCNC(C(=O)c1c[nH]c2c(CC)cccc12)c1ccccc1 (stereo unspecified)	35.5 µM [falling, single point]	
O=[N+]([O-])c1cccc(C(=Nc2ccccc2Cl)NO)c1	3.66 µM [rising, full curve, poor fit]	
O=C(CCNS(=O)(=O)c1cccc2nonc12)NC1CCCc2ccccc21 (stereo unspecified)	0.164 µM [rising, full curve, poor fit]	
Oc1ccc(/C=N/Nc2ccc(C(F)(F)F)cn2)cc1	35.5 µM [falling, single point]	
O=C(Nc1ccc(N2CCN(C(=O)c3ccccc3)CC2)cc1)c1ccc([N+](=O)[O-])o1	7.94 µM [falling, partial curve, poor fit]	
Cc1ccc2oc(=O)c3cnn(CC(=O)N4CCN(c5ccccn5)CC4)c3c2c1	29.1 µM [rising, partial curve, poor fit]	
COc1ccccc1N1CCN(/N=C/c2cc(OC)c(OC(C)=O)c(OC)c2)CC1	1.26 µM [rising, full curve, poor fit]	
Cc1ccc(C(=O)NCCCc2ccccc2)c(Cl)c1	6.31 µM [rising, partial curve, poor fit]	
Oc1ccccc1N=Cc1sc2ccccc2c1Cl	13 µM [falling, partial curve]	
O=C(Nc1ccc(Cl)cc1)N1CCC(c2nc(-c3ccc(F)cc3)no2)CC1	29.1 µM [falling, single point]	
COc1ccc(-c2cn3c(C)c(C(=O)Nc4cccc(C)n4)sc3n2)cc1	1.64 µM [falling, full curve]	
C=Cn1c(N2CCOCC2)nc2c1c(=O)[nH]c(=O)n2C	32.6 µM [falling, single point]	
CCN(CC)S(=O)(=O)c1ccc(NC(=O)c2ccccn2)cc1	29.1 µM [falling, single point]	
Cc1cc(C)cc(-n2c(SCC(=O)NCc3ccco3)nc3ccccc3c2=O)c1	29.1 µM [rising, single point]	
COc1ccccc1N1CCN(C(=O)CN(c2ccc(C)c(C)c2)S(C)(=O)=O)CC1	11.6 µM [rising, partial curve, poor fit]	
Cc1cc(C2CCCCC2)n(O)c(=O)c1	29.1 µM [rising, single point]	29.1 µM [falling, single point]

SMILES	AC50 [1]	AC50 [2]
Cc1ccc(C)c(C(=O)COC(=O)c2n[nH]c3ccccc23)c1	16.4 µM [falling, single point]	
COc1ccc(NC(=O)CNC(=O)c2nn(-c3ccc(OC)c(OC)c3)c(=O)c3ccccc23)c(OC)c1	17.8 µM [rising, partial curve, poor fit]	
CCOC(=O)/C(N=O)=C(\O)C1CCN(C(=O)OCC)CC1	20.6 µM [falling, single point]	
COc1ccccc1NC(=O)C(=O)NCC1CCCN1S(=O)(=O)c1cccs1 (stereo unspecified)	1.84 µM [falling, full curve]	
CCCN(CCC)CCCNC(=O)C1CCN(S(=O)(=O)CC)CC1	0.501 µM [falling, full curve, poor fit]	
COc1ccc(C)c2sc(N(Cc3cccnc3)C(=O)C3CCCCC3)nc12	17.8 µM [falling, single point]	
Cc1c(O)c(S(=O)c2ccccc2)c(=O)n(-c2ccccc2)c1-c1ccccc1 (stereo unspecified)	25.9 µM [falling, single point]	
CCOC(=O)CCNC(=O)Nc1ccc2nc(C)n(Cc3ccc(Cl)cc3)c(=O)c2c1	35.5 µM [falling, single point]	
COc1ccc(-c2cc(C(=O)NNC(=S)NC(=O)c3c(-c4ccccc4)noc3C)[nH]n2)cc1	35.5 µM [falling, single point]	
CCC(C)N1CC(=O)N2C(c3ccc(OC)cc3OC)c3[nH]c4ccccc4c3C[C@H]2C1=O (stereo partly specified)	5.62 µM [rising, single point]	
OCCNCC(O)Cn1c2ccccc2c2ccccc21 (stereo unspecified)	10 µM [rising, partial curve, poor fit]	
COc1ccc(Cl)cc1C1=CC(=O)C[C@H](c2ccc(F)cc2)C1	25.9 µM [falling, single point]	
Cc1ccc(C)c(Cn2nnc3c(=O)[nH]c(C4CCN(S(=O)(=O)c5ccc(S(=O)(=O)N(C)C)cc5)CC4)nc32)c1	20 µM [falling, single point]	
S=C(NCc1ccncc1)Nc1ccc(Cl)cc1	1.46 µM [falling, partial curve, poor fit]	
Cc1ccc(CN2C(=O)N/C(=C\c3cccn3-c3cccc(C(=O)O)c3)C2=O)cc1	11.2 µM [falling, partial curve, poor fit]	
COc1ccc(NC(=O)CN(c2ccc(OC)c(Cl)c2)S(=O)(=O)c2ccccc2)c(OC)c1	6.31 µM [rising, single point]	
Cn1cnc([N+](=O)[O-])c1Oc1cccc2ccccc12	14.6 µM [falling, partial curve, poor fit]	
Clc1cnc(N/N=C/c2ccncc2)c(Cl)c1	1 µM [rising, partial curve]	
O=C(CCl)NNc1nc(-c2ccccc2)c2cc(Cl)ccc2n1	22.4 µM [falling, single point]	
Cc1ccc(CNC(=O)c2ccccc2NS(=O)(=O)c2ccc(Cl)nc2)cc1	1 µM [rising, partial curve, poor fit]	

Three of these compounds, reformatted:
SMILES,AC50 [1],AC50 [2]
Cc1c(O)c(S(=O)c2ccccc2)c(=O)n(-c2ccccc2)c1-c1ccccc1 (stereo unspecified),"25.9 µM [falling, single point]",
CCOC(=O)CCNC(=O)Nc1ccc2nc(C)n(Cc3ccc(Cl)cc3)c(=O)c2c1,"35.5 µM [falling, single point]",
COc1ccc(-c2cc(C(=O)NNC(=S)NC(=O)c3c(-c4ccccc4)noc3C)[nH]n2)cc1,"35.5 µM [falling, single point]",
